# In the supplement of paper PMC11098740:
# By UniProt entry, the sequences of proteins in these tests, tags left out.
# UniProt O14980, whole entry: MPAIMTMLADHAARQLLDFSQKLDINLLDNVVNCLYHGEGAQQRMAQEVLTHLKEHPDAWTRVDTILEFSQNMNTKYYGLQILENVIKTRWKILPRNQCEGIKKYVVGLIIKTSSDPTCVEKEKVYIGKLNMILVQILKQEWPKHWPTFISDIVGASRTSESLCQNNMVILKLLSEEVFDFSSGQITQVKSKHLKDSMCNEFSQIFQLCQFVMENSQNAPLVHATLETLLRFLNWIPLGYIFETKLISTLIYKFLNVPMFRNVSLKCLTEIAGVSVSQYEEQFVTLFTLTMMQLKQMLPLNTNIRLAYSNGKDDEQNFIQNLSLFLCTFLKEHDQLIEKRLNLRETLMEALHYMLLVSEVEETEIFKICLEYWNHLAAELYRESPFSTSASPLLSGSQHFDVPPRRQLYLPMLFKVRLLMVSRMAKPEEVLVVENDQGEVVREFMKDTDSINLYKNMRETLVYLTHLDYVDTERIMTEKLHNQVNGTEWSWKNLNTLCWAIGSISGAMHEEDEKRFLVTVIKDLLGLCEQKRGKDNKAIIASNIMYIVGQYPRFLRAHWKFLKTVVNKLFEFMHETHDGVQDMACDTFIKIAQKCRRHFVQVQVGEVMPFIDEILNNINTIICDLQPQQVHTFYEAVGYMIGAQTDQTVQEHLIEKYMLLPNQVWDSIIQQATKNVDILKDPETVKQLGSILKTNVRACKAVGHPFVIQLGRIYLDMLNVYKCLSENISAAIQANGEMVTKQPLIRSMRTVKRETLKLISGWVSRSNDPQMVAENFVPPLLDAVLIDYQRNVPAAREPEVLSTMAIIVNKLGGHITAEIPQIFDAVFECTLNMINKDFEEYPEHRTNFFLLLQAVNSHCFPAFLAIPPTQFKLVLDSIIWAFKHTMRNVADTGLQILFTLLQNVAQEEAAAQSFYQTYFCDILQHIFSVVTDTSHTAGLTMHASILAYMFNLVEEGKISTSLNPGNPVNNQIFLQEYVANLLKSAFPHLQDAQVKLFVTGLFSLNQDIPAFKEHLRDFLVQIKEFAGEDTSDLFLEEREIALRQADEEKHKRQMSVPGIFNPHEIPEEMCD
# Some of the results follow. Single values are uncertain, as repeats are few or missing.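 The assay uses a mixed pool of 41 HAP1 clones in which 61 cancer-associated proteins bear intron-inserted fluorescent tags, and clones are distinguished by image pattern. Results are compared against DMSO-treated control wells, and the BRD4 degrader dBET6 is the positive control.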
# Target: XPO1 (intron 15 mScarlet tag, HAP1) (UniProt O14980)
# Assay: XPO1 fluorescence intensity change vs DMSO (log2 fold change); higher = more XPO1 protein
# Conditions: 6 h
row,Compound,XPO1 fluorescence intensity change (log2)
1,CNC(=O)c1ccc(N2C(=S)N(c3ccc(C#N)c(C(F)(F)F)c3)C(=O)C2(C)C)cc1F [Enzalutamide] (20 µM),-0.113
2,CNC[C@H](O)c1ccc(O)c(O)c1 [Epinephrine] (10 µM),0.122
3,CC[C@H]1OC(=O)[C@H](C)[C@@H](O[C@H]2C[C@@](C)(OC)[C@@H](O)[C@H](C)O2)[C@H](C)[C@@H](O[C@@H]2O[C@H](C)C[C@H](N(C)C)[C@H]2O)[C@](C)(O)C[C@@H](C)CN(C)[C@H](C)[C@@H](O)[C@]1(C)O [Azithromycin] (10.0002 µM),-0.022
4,O=C(/C=C/c1cccc(S(=O)(=O)Nc2ccccc2)c1)NO [Belinostat] (20 µM),-0.0649
5,O=C(O)P(=O)(O)O [Foscarnet] (10 µM),0.0925
6,NC(=O)NO [Hydroxyurea] (20 µM),0.0689
7,Cc1ccc(C(=O)Nc2ccc(CN3CCN(C)CC3)c(C(F)(F)F)c2)cc1C#Cc1cnc2cccnn12 [Ponatinib] (2.5795 µM),0.039
8,CN1CCN(CCCN2c3ccccc3Sc3ccc(C(F)(F)F)cc32)CC1 [Trifluoperazine] (10.00057696 µM),0.0223
9,C[C@H](N)C(=O)O.N[C@@H](Cc1ccc(O)cc1)C(=O)O [Glatiramer Acetate] (10 µM),0.197
10,COc1cc2c(Oc3ccc4[nH]c(C)cc4c3F)ncnc2cc1OCCCN1CCCC1 [Cediranib] (10 µM),0.0628
11,Nc1ccn([C@@H]2O[C@H](CO)[C@@H](O)[C@@H]2O)c(=O)n1 [Cytarabine] (0.316228 µM),-0.114
12,CC[C@@H](CO)NCCN[C@@H](CC)CO [Ethambutol] (10 µM),0.24
13,C=C(c1ccc(C(=O)O)cc1)c1cc2c(cc1C)C(C)(C)CCC2(C)C [Bexarotene] (20 µM),0.104

# Numbers 10 through 12 from above:
row,Compound,XPO1 fluorescence intensity change (log2)
10,COc1cc2c(Oc3ccc4[nH]c(C)cc4c3F)ncnc2cc1OCCCN1CCCC1 [Cediranib] (10 µM),0.0628
11,Nc1ccn([C@@H]2O[C@H](CO)[C@@H](O)[C@@H]2O)c(=O)n1 [Cytarabine] (0.316228 µM),-0.114
12,CC[C@@H](CO)NCCN[C@@H](CC)CO [Ethambutol] (10 µM),0.24
